Patent US10154957B2, “Microneedle device having a peptide therapeutic agent and an amino acid and methods of making and using the same” (3M INNOVATIVE PROPERTIES COMPANY, priority 2011, dated 2018)
The source gives many values for each of these; only a part stands here. Marks after values point to notes of the source that are not given here.

Experiment: Percent purity of PTHrP analogue in coating with varying His-HCl concentration, three storage conditions (HPLC)
Assay type: physicochemical
Details: peptide 10 mg/mL in PBS
Description: The protein or polypeptide content in the formulation coated on the microneedle arrays was determined using an Agilent 1100 HPLC system (Agilent Technologies, Wilmington, Del.) equipped with a binary pump, well-plated thermostated autosampler, thermostated column compartment, and a diode array UV detector. A Zorbax 300SB-C8 column (Agilent Technologies, Wilmington, Del.) having a 5 μm particle size and 2.1×150 mm inner diameter was used for the separations. The column was maintained at 50° C. The mobile phase consisted of two eluents. Eluent A was 0.1% TFA (trifluoroacetic acid) in water and eluent B was 0.1% TFA in acetonitrile (Spectrum Chemical, New Brunswick, N.J.). A linear gradient from 80/20 to 50/50 (A/B) was applied over 30 minutes. The flow rate was 0.4 mL/minute and the UV detection wavelength was set at 214 nm. The total run time was 34 minutes and the sample injection volume was 15 μL.
Five sample formulations were prepared containing 10 mg/mL of [Glu^22,25,Leu^23,28,31,Aib^29,Lys^26,30]hPTHrP(1-34)NH2 and varying concentrations of L-histidine monohydrochloride (His-HCl) in PBS. The concentrations of His-HCl in the sample formulations range from 1 mg/mL to 10 mg/mL. A control formulation was also prepared containing 10 mg/mL of [Glu^22,25,Leu^23,28,31,Aib^29,Lys^26,30]hPTHrP(1-34)NH2 in PBS. […] Microneedle arrays were coated with either the sample or the control formulations. The coating was applied by dropwise addition of 40 μL of the formulation to the portion of the array defined by the octagon shaped pattern of microneedles. The flood coated arrays (both sample and control formulation coated) were dried in an oven at 35° C. for 1.5 hours followed by 30° C. for 15 hours.
After drying, the coated arrays were placed in a storage chamber that was maintained at one of three storage conditions: 40° C./96% RH (storage condition A); 25° C./60% RH (storage condition B); or 5° C./ambient RH. The [Glu^22,25,Leu^23,28,31,Aib^29,Lys^26,30]hPTHrP(1-34)NH2 content of the coated arrays was determined following storage in a chamber for 1 day, 3 days, 7 days, 14 days, 21 days, 28 days, and 2 months. The initial [Glu^22,25,Leu^23,28,31,Aib^29,Lys^26,30]hPTHrP(1-34)NH2 content was also determined using freshly coated arrays (both sample and control formulation coated). The arrays used to determine initial content were stored in a refrigerator at about 4° C. and analyzed within one day of being prepared. At the designated time point, an array was taken from the chamber and washed with PBS (3.5 mL) to remove the coating from the array. An aliquot of the resulting wash solution was analyzed for [Glu^22,25,Leu^23,28,31,Aib^29,Lys^26,30]hPTHrP(1-34)NH2 content using the HPLC method described above. The results were quantified against an external standard of [Glu^22,25,Leu^23,28,31,Aib^29,Lys^26,30]hPTHrP(1-34)NH2. At each time point, the percent purity of [Glu^22,25,Leu^23,28,31,Aib^29,Lys^26,30]hPTHrP(1-34)NH2 in the coating was determined by measuring the peak area for [Glu^22,25,Leu^23,28,31,Aib^29,Lys^26,30]hPTHrP(1-34)NH2 in the selected coating and dividing it by the total peak area measured for all [Glu^22,25,Leu^23,28,31,Aib^29,Lys^26,30]hPTHrP(1-34)NH2 related peaks.

For “[Glu^22,25,Leu^23,28,31,Aib^29,Lys^26,30]hPTHrP(1-34)NH2”, the “Percent Purity of [Glu^22,25, Leu^23,28,31, Aib^29, Lys^26,30]hPTHrP(1-34)NH2” value (“Percent Purity” for short) (Histidine-HCl 1 mg/mL, Storage Condition A (40° C./96% RH), Day 1) was 97.7%, the “Percent Purity” value (Histidine-HCl 1 mg/mL, Storage Condition A (40° C./96% RH), Day 3) was 55.7% and the “Percent Purity” value (Histidine-HCl 1 mg/mL, Storage Condition A (40° C./96% RH), Day 7) was 18.6%. The “Percent Purity” value (Histidine-HCl 1 mg/mL, Storage Condition A (40° C./96% RH), Day 14, the sample for analysis contained insoluble impurities) was 29.1^(a) percent, the “Percent Purity” value (Histidine-HCl 1 mg/mL, Storage Condition A (40° C./96% RH), Day 21, the sample for analysis contained insoluble impurities) was 0^(a) percent and the “Percent Purity” value (Histidine-HCl 1 mg/mL, Storage Condition A (40° C./96% RH), Initial) was 99.0%. For the same substance, the “Percent Purity” value (Histidine-HCl 1 mg/mL, Storage Condition C (5° C./ambient RH), 2 months) was 98.2%, the “Percent Purity” value (Histidine-HCl 1 mg/mL, Storage Condition C (5° C./ambient RH), Day 7) was 98.8% and the “Percent Purity” value (Histidine-HCl 1 mg/mL, Storage Condition C (5° C./ambient RH), Day 14) was 98.8%. For the same substance, the “Percent Purity” value (Histidine-HCl 1 mg/mL, Storage Condition C (5° C./ambient RH), Day 28) was 98.8%, the “Percent Purity” value (Histidine-HCl 1 mg/mL, Storage Condition C (5° C./ambient RH), Initial) was 99.0% and the “Percent Purity” value (Histidine-HCl 2 mg/mL, Storage Condition C (5° C./ambient RH), 2 months) was 98.4%. The “Percent Purity” value (Histidine-HCl 2 mg/mL, Storage Condition C (5° C./ambient RH), Day 7) was 98.8%, the “Percent Purity” value (Histidine-HCl 2 mg/mL, Storage Condition C (5° C./ambient RH), Day 14) was 98.9% and the “Percent Purity” value (Histidine-HCl 2 mg/mL, Storage Condition C (5° C./ambient RH), Day 28) was 98.9%. The “Percent Purity” value (Histidine-HCl 2 mg/mL, Storage Condition C (5° C./ambient RH), Initial) was 99.0%, the “Percent Purity” value (Histidine-HCl 3.3 mg/mL, Storage Condition C (5° C./ambient RH), 2 months) was 98.6% and the “Percent Purity” value (Histidine-HCl 3.3 mg/mL, Storage Condition C (5° C./ambient RH), Day 7) was 98.8%. For the same substance, the “Percent Purity” value (Histidine-HCl 3.3 mg/mL, Storage Condition C (5° C./ambient RH), Day 14) was 98.9%, the “Percent Purity” value (Histidine-HCl 3.3 mg/mL, Storage Condition C (5° C./ambient RH), Day 28) was 98.8% and the “Percent Purity” value (Histidine-HCl 3.3 mg/mL, Storage Condition C (5° C./ambient RH), Initial) was 99.3%. For the same substance, the “Percent Purity” value (Histidine-HCl 5 mg/mL, Storage Condition C (5° C./ambient RH), 2 months) was 98.6%, the “Percent Purity” value (Histidine-HCl 5 mg/mL, Storage Condition C (5° C./ambient RH), Day 7) was 98.9% and the “Percent Purity” value (Histidine-HCl 5 mg/mL, Storage Condition C (5° C./ambient RH), Day 14) was 98.9%. The “Percent Purity” value (Histidine-HCl 5 mg/mL, Storage Condition C (5° C./ambient RH), Day 28) was 98.8%, the “Percent Purity” value (Histidine-HCl 5 mg/mL, Storage Condition C (5° C./ambient RH), Initial) was 99.0% and the “Percent Purity” value (Histidine-HCl 10 mg/mL, Storage Condition B (25° C./60% RH), 2 months) was 98.6%. For the same substance, the “Percent Purity” value (Histidine-HCl 10 mg/mL, Storage Condition B (25° C./60% RH), Day 28) was 98.9%, the “Percent Purity” value (Histidine-HCl 10 mg/mL, Storage Condition C (5° C./ambient RH), 2 months) was 98.7% and the “Percent Purity” value (Histidine-HCl 10 mg/mL, Storage Condition C (5° C./ambient RH), Day 7) was 98.9%. The “Percent Purity” value (Histidine-HCl 10 mg/mL, Storage Condition C (5° C./ambient RH), Day 14) was 98.9%, the “Percent Purity” value (Histidine-HCl 10 mg/mL, Storage Condition C (5° C./ambient RH), Day 28) was 98.9% and the “Percent Purity” value (Histidine-HCl 10 mg/mL, Storage Condition C (5° C./ambient RH), Initial) was 99.0%. The “Percent Purity” value (Histidine-HCl None, Storage Condition A (40° C./96% RH), Day 1) was 57.5%, the “Percent Purity” value (Histidine-HCl None, Storage Condition A (40° C./96% RH), Day 3) was 17.3% and the “Percent Purity” value (Histidine-HCl None, Storage Condition A (40° C./96% RH), Day 7, the sample for analysis contained insoluble impurities) was 42.1^(a) percent. For the same substance, the “Percent Purity” value (Histidine-HCl None, Storage Condition A (40° C./96% RH), Day 14, the sample for analysis contained insoluble impurities) was 10.6^(a) percent, the “Percent Purity” value (Histidine-HCl None, Storage Condition A (40° C./96% RH), Day 21, the sample for analysis contained insoluble impurities) was 0^(a) percent and the “Percent Purity” value (Histidine-HCl None, Storage Condition A (40° C./96% RH), Initial) was 98.7%. The “Percent Purity” value (Histidine-HCl none, Storage Condition C (5° C./ambient RH), 2 months) was 97.3%, the “Percent Purity” value (Histidine-HCl none, Storage Condition C (5° C./ambient RH), Day 7) was 98.0% and the “Percent Purity” value (Histidine-HCl none, Storage Condition C (5° C./ambient RH), Day 14) was 98.4%. For the same substance, the “Percent Purity” value (Histidine-HCl none, Storage Condition C (5° C./ambient RH), Day 28) was 97.6% and the “Percent Purity” value (Histidine-HCl none, Storage Condition C (5° C./ambient RH), Initial) was 98.7%.
